Experimental data taken from publication doi:10.1101/2022.02.10.479924.
These are yes or no findings as the source states them, for the method shown. Binding seen in cells or lysates may run through a third protein. Some results given as binding are weak or reduced against the parent protein; the word gives no strength.

Chains of the proteins cited; added tags and fusions are not shown.
UniProt O75821: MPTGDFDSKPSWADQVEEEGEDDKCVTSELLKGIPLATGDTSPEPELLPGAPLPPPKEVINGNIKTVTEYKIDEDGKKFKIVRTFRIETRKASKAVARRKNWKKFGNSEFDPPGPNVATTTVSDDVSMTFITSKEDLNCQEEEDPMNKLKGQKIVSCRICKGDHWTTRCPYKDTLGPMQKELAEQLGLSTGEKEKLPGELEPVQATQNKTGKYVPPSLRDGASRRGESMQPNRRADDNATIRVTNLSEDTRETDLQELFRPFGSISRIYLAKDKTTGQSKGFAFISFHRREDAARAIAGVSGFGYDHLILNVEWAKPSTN
UniProt Q14152: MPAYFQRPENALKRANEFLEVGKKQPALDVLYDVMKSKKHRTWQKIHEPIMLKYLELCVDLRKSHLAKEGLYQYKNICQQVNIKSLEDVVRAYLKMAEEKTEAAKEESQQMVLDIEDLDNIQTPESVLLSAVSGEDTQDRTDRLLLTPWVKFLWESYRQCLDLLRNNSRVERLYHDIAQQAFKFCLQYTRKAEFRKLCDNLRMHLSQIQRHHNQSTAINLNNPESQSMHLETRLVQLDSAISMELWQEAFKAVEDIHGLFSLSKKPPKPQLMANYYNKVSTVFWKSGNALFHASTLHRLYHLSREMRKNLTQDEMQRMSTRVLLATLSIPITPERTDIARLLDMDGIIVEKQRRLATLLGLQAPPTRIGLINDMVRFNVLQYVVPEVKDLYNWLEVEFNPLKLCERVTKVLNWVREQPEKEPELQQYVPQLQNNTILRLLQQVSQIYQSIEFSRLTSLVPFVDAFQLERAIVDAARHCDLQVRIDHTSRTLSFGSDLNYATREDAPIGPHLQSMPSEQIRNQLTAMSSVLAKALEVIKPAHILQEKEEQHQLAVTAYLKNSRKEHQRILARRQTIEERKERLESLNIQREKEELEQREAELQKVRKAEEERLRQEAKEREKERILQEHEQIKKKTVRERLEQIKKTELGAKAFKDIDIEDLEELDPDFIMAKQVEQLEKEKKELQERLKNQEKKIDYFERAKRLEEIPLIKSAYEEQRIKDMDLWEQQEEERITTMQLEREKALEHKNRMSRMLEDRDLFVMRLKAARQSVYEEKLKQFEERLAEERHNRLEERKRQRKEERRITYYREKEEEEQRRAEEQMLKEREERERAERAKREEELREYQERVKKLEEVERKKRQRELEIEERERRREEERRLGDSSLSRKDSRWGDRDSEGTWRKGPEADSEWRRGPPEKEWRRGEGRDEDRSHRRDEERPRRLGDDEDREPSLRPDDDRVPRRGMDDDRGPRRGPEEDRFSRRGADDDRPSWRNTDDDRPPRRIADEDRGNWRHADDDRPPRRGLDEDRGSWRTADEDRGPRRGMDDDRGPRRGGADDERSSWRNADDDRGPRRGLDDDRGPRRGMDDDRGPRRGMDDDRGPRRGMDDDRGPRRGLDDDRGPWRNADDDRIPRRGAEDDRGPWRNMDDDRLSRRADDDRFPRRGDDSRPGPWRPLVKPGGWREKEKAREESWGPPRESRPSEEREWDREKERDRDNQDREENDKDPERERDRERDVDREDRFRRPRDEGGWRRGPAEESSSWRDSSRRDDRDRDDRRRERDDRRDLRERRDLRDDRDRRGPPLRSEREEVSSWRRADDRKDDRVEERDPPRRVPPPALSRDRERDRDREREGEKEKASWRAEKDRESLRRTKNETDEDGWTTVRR
UniProt Q04637: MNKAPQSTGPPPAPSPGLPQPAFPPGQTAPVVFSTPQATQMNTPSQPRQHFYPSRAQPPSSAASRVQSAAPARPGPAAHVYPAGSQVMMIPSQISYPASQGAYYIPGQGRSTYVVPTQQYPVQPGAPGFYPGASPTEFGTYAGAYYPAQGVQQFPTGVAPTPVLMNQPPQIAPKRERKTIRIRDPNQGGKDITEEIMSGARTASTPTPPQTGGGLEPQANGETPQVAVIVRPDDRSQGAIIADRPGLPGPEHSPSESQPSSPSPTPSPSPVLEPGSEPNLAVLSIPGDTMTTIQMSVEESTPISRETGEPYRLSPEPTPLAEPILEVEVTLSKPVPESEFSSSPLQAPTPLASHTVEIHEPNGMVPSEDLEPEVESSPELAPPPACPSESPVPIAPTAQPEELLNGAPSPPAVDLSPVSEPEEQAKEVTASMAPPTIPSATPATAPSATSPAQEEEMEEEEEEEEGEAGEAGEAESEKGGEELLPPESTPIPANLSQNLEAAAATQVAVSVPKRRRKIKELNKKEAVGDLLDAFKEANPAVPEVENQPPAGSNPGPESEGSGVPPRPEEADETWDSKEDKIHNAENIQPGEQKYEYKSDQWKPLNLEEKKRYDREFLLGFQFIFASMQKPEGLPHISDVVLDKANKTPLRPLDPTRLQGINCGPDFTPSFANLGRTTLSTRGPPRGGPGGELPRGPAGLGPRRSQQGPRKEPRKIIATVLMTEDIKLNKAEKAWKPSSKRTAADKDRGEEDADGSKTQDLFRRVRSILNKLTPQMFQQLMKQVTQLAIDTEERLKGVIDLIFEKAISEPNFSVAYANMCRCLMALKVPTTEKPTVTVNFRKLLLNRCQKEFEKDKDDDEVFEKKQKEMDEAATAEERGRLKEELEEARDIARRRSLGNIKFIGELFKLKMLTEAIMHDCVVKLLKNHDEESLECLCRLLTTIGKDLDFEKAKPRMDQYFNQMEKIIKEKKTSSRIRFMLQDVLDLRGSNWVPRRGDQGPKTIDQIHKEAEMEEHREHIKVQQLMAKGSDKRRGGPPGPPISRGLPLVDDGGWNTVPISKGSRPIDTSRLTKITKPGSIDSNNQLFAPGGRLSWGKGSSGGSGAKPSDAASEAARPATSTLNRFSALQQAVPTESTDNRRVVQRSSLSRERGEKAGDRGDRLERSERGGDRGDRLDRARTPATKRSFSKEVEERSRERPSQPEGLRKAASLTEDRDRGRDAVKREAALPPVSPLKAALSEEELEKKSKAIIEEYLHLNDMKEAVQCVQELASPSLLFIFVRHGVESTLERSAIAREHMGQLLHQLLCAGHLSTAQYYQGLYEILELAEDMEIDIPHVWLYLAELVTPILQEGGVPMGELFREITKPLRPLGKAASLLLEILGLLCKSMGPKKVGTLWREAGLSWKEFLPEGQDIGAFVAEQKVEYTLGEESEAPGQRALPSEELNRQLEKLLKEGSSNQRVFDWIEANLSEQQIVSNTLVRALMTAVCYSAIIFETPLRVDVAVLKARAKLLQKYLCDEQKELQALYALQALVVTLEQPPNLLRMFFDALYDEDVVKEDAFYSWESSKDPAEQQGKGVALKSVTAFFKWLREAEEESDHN
UniProt Q9Y520: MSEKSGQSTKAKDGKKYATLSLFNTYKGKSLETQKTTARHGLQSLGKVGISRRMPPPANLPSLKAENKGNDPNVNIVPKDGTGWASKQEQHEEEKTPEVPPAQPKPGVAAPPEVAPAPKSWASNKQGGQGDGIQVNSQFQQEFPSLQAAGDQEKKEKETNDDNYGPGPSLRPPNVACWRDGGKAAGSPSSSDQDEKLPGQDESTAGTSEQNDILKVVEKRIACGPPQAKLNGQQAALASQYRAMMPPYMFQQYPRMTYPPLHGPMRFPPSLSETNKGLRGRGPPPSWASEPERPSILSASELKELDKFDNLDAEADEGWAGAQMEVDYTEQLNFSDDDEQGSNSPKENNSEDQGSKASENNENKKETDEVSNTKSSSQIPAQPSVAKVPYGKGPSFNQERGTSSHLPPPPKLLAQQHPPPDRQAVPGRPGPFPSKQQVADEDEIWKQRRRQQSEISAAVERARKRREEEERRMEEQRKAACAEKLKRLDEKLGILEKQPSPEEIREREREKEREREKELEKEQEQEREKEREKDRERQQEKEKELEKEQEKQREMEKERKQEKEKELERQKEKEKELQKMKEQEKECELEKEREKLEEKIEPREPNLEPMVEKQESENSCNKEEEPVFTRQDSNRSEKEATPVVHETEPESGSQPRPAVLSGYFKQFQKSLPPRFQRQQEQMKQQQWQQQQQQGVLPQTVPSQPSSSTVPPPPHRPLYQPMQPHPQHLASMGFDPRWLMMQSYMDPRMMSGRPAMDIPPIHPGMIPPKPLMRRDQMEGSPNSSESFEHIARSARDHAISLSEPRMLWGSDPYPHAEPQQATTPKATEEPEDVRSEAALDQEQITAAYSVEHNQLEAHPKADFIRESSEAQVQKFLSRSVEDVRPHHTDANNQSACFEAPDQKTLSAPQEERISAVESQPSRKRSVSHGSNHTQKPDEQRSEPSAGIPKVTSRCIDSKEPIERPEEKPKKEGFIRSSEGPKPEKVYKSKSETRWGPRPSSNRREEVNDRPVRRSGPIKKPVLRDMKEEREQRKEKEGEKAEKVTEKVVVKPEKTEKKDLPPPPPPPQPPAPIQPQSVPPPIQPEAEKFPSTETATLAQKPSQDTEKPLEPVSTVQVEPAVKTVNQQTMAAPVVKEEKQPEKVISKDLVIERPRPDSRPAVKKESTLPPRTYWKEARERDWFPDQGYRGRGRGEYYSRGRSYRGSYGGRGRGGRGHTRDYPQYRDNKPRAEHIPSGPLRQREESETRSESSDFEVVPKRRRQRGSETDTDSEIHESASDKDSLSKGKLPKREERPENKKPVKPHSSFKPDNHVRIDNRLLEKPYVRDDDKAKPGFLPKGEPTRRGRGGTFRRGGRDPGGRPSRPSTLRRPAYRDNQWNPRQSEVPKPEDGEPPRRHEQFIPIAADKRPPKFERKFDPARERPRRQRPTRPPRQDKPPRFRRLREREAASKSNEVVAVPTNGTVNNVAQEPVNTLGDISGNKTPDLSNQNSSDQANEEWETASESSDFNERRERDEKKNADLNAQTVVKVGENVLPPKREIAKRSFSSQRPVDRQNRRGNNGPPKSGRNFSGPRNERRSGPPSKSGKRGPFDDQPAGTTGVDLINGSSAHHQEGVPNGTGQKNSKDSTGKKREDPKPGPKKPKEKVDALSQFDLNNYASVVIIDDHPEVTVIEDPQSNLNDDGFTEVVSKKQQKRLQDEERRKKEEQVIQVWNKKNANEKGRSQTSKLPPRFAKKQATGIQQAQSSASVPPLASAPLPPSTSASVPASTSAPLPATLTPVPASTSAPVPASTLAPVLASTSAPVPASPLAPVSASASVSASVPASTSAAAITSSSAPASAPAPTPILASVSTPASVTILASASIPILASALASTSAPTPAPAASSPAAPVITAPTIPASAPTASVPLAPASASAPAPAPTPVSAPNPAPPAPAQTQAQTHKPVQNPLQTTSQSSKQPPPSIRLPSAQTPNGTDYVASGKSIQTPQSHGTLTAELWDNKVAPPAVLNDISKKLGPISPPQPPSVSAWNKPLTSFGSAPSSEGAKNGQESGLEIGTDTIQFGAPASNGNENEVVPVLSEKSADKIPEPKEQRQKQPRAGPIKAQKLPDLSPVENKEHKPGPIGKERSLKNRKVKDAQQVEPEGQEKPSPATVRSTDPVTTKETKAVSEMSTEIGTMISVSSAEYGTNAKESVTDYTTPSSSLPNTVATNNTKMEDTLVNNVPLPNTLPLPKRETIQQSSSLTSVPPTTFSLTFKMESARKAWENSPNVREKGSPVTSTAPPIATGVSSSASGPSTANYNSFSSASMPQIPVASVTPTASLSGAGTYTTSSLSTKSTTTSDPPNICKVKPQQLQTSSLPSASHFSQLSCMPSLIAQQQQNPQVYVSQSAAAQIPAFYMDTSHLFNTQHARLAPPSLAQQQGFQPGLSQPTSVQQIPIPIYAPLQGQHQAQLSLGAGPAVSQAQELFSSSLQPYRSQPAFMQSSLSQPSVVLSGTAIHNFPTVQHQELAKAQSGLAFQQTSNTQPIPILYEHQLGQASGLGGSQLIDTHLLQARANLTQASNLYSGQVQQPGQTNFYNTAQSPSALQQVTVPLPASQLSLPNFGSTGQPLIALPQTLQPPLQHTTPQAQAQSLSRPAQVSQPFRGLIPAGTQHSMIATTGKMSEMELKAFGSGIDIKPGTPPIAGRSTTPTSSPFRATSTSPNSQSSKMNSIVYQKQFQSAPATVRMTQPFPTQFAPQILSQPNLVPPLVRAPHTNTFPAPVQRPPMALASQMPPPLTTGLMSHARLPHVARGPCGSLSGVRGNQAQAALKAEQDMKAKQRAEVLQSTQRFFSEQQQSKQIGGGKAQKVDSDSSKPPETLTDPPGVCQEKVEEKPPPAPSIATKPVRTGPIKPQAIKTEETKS

How the values were obtained:
[1] = molecular target: G subunit of the eIF3 complex (eIF3G) (human (endogenous in HEK293T)) (UniProt O75821); test: cross-linking
[2] = molecular target: eIF3A (human (endogenous in HEK293T)) (UniProt Q14152); test: cross-linking

binding [1]	binding [2]	Substance
binds		eIF4G1 (subunit of the eIF4F complex) (from UniProt Q04637 1-1599)
	binds	stress granule protein PRC2C (from UniProt Q9Y520 1-2896)
